These are yes or no findings as the source states them, for the method shown. In cells and extracts the contact can be indirect. Some results given as binding are weak or reduced against the parent protein; the word gives no strength.

Chains of the proteins cited; added tags and fusions are not shown. Residues count along the entry.
UniProt Q60751, residues 742-1373: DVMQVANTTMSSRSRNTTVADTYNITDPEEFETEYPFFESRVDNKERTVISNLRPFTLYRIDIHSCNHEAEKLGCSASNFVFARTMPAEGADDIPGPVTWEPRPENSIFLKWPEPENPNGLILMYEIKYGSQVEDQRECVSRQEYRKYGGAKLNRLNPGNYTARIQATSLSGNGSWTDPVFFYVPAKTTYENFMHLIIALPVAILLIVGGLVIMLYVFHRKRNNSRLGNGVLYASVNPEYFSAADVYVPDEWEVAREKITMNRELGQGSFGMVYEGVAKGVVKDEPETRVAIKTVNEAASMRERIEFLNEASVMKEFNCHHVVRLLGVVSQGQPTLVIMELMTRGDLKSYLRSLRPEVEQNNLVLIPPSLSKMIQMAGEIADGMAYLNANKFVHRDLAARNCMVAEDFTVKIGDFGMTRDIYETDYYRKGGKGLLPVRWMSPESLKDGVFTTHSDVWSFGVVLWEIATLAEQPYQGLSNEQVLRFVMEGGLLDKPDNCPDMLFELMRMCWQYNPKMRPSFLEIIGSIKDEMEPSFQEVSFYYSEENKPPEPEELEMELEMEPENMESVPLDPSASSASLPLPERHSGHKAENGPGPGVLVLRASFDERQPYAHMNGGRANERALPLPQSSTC

This assay has as its target IGF-1 receptor β subunit (mouse (endogenous in murine dermal fibroblasts)) (UniProt Q60751). Kind of assay: co-IP; lysates of MDFs treated with 500 μM rotenone for 3 h (and untreated control); immunoprecipitated with anti-IGF-1Rβ antibodies, immunoblotted with anti-IGF-1Rβ and anti-PTP1B antibodies.

B1: Protein tyrosine phosphatase 1B (enzyme, UniProt P35821 1-432)
chain: MEMEKEFEEIDKAGNWAAIYQDIRHEASDFPCKVAKLPKNKNRNRYRDVSPFDHSRIKLHQEDNDYINASLIKMEEAQRSYILTQGPLPNTCGHFWEMVWEQKSRGVVMLNRIMEKGSLKCAQYWPQQEEKEMVFDDTGLKLTLISEDVKSYYTVRQLELENLTTKETREILHFHYTTWPDFGVPESPASFLNFLFKVRESGSLSLEHGPIVVHCSAGIGRSGTFCLADTCLLLMDKRKDPSSVDIKKVLLEMRRFRMGLIQTADQLRFSYLAVIEGAKFIMGDSSVQDQWKELSREDLDLPPEHVPPPPRPPKRTLEPHNGKCKELFSSHQWVSEETCGDEDSLAREEGRAQSSAMHSVSSMSPDTEVRRRMVGGGLQSAQASVPTEEELSSTEEEHKAHWPSHWKPFLVNVCMATLLATGAYLCYRVCFH
As for B1, the binding entry is listed as “binds”.

These data come from PMC4309668.
